The values that follow come from PubChem BioAssay AID2685 (National Center for Advancing Translational Sciences (NCATS), 2010).

One may read the AC50 as the concentration giving half of the maximal activity seen. Read a high AC50 as activity only at high concentration.

The list shows a part of the results. The main result of the screen is listed elsewhere. These columns were measured beside it and carry no call. The list favours compounds with an active or inconclusive main result. Potencies come from curve fits of mixed quality, noted in brackets.

The nature of this assay: qHTS Assay for Lipid Storage Modulators in Drosophila S3 Cells.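 For cell number change: cells counted by Cell Tracker Red CMTPX staining in the red channel.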 The settings on record: BODIPY lipid droplet fluorescence, 18-24 h; for cell number change: measured here: cell count max response, cells fed with added oleic acid. An outline of the steps: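 Laser-scanning cytometry quantifies lipid droplet accumulation (500–530 nm total intensity; droplet/cell object ratio) in oleic acid-fed (400 uM added) Drosophila S3 cells treated with a concentration series. 20 uM Triacsin C defined 100% inhibition.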
On the technique in general: In qHTS, concentration-response curves come from the screen itself.

The mark [1] stands for this setting: measured here: lipid fluorescence (Fed channel) AC50, cells fed with added oleic acid.
[2] abbreviates: measured here: cell number channel AC50, cells fed with added oleic acid.

As for `COc1cc(NC(=O)C2CCN(S(=O)(=O)c3cccc4nonc34)CC2)cc(OC)c1`, the cell number change was -8.62%. Under setting [1], the AC50 was 92 nM [rising, partial curve, poor fit].
As for `O=C(CSc1nnc(-c2ccncc2)n1CC1CCCO1)NCc1ccccc1` (configuration not stated), the cell number change amounted to 19%.
Regarding `Cc1cc(N)n(-c2ccc(Cl)cc2)n1`, the cell number change is -7.01%. Also, under setting [1], the AC50 was 355 nM [rising, full curve, poor fit].
`COc1ccc(NC(=S)Nc2cccc3cnccc23)cc1`: the cell number change is -4.1%. Also, under setting [1], the concentration at half-maximal activity (AC50) is 92 nM [rising, full curve, poor fit].
On to `COc1ccc(NS(=O)(=O)c2ccc(NC(=O)c3ccccc3)cc2)nn1`, for which the cell number change was found to be 34.5%. In addition, the concentration at half-maximal activity (AC50) under setting [2] is 18400 nM [rising, single point]. Under setting [1], the concentration at half-maximal activity (AC50) was 29100 nM [rising, single point].
`CCCCn1c(NCCC)nc2c1c(=O)[nH]c(=O)n2C`: the cell number change was 5.62%.
`Cn1c(SCC(=O)N2CCCCC2)nc2c([nH]c3ccccc32)c1=O`: the AC50 reads like this: under setting [2], 92 nM [rising, partial curve]; under setting [1], 51.7 nM [rising, full curve, poor fit].
For the molecule `CCSc1nnc(-c2ccc(S(=O)(=O)NCc3cccs3)cc2)o1`, the cell number change was -26.7%. The AC50 under setting [2] is 6510 nM [falling, partial curve, poor fit]. Also, the AC50 under setting [1] is 16400 nM [rising, single point].
As for `COc1ccc(C(C(=O)NC2CCCC2)N(CCCO)C(=O)c2snc(C(N)=O)c2N)cc1` (configuration not stated), the AC50 under setting [1] was 580 nM [rising, single point].
On to `CC(=O)C(Sc1nc(N(C)C)nc(N(C)C)n1)C(=O)Nc1ccccc1` (configuration not stated), for which the cell number change was -35%.
As for `COc1ccc(CSCC(=O)Nc2ccccc2SC)cc1`, the cell number change turned out to be 19.9%. Besides, the AC50 under setting [1] is 23100 nM [rising, single point].
Regarding `Cc1cccc(S(=O)(=O)NCC2CCCO2)c1` (configuration not stated), the cell number change came out at 14.3%.
Take `COC(=O)c1cc2ccccn2c2c(C(=O)OC)c(C(=O)OC)cc1-2`: the cell number change was 28.4%. The AC50 under setting [2] was 461 nM [rising, full curve, poor fit]. Also, under setting [1], the AC50 is 651 nM [rising, partial curve, poor fit].
Consider `NC(=O)c1cc([N+](=O)[O-])ccc1NCc1ccc(O)cc1`, for which the cell number change was -22.1%.
With `COc1ccccc1NC(=S)NCc1ccc2c(c1)OCO2`, the cell number change is 3.18%. Further, the AC50 under setting [1] is 9200 nM [rising, single point].
With `CC1(C)C2CCC1(CS(=O)(=O)N1CCN(c3ccc(F)cc3)CC1)C(=O)C2` (configuration not stated), the cell number change was -30.2%. Moreover, the AC50 under setting [2] was 1840 nM [falling, full curve, poor fit]. The AC50 under setting [1] was 6510 nM [falling, single point].
In the case of `CCOC(=O)C1CCN(C(=O)COC(=O)c2ccc3c(c2)C(=O)N(c2ccc(OCC)cc2)C3=O)CC1`, the concentration at half-maximal activity (AC50) is, setting by setting: under setting [2], 731 nM [rising, single point]; under setting [1], 580 nM [rising, single point].
